Reference: PubChem BioAssay AID504834 (National Center for Advancing Translational Sciences (NCATS), 2011)
Out of some 320,000 compounds screened, about 22,000 (6.9%) were called active. The shares of active, inactive and inconclusive entries below differ from those in the screen. Calls follow the shape of the dose curve; as a rule, active = well fitted inhibition curve with a large enough effect; inconclusive = small, poorly fitted or top-dose-only effect, or another doubt; inactive = no such curve, though single readings can be large or run the other way. Where the call is inconclusive, the potency comes from a doubtful curve fit.

Test: Primary qHTS for delayed death inhibitors of the malarial parasite plastid, 96 hour incubation
Details: P. falciparum luciferase reporter growth; series mostly up to 28.7 µM; activity change, negative = inhibition: at the top concentration
Outline: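 P. falciparum expressing integrated firefly luciferase, in erythrocytes at 2% hematocrit, 0.05% parasitemia, incubated with compounds 96 h at 37 C, 5% CO2. Growth inhibition read as loss of luminescence; two-generation exposure targets delayed-death apicoplast inhibitors.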
% is scaled to controls: 0 for no effect and ±100 for the full control effect; potency is read from the fitted curve at half-maximal effect.

Row | SMILES | Potency | activity change, negative = inhibition
1 | CC(C)N(CCCNC(=O)C1CCC(CNS(=O)(=O)c2ccccc2)CC1)Cc1ccccc1 (stereo not given) | inconclusive: 18.5 µM [inhibitor, single point] | –
2 | Cc1ccc(Nc2nc(-c3ccncc3)cs2)cc1 | – | inactive: 2.43%
3 | CS(=O)(=O)N1CCN(C(=O)CSc2ccccc2)CC1 | inconclusive: 10.4 µM [inhibitor, partial curve, poor fit] | –
4 | CCOc1ccc(C(C)=O)cc1CN1C(=O)C(=O)N(CC)C1=O | inconclusive: 8.28 µM [inhibitor, partial curve] | –
5 | O=C(NCCCN1CCCC1)[C@H](CSCc1ccccc1)N1Cc2ccccc2C1=O | inconclusive: 10.4 µM [inhibitor, single point] | –
6 | CC1=CC2/C=C(\C)CCC(O)C(O)/C=C/C(=O)C23C(=O)NC(CC(C)C)C3C1C (stereo not given) | – | inactive: 11.1%
7 | COc1ccccc1NC(=O)Nc1sccc1-c1nc2ccccc2s1 | inconclusive: 11.7 µM [inhibitor, partial curve, poor fit] | –
8 | CCOC(=O)N1CCC(NC(=O)C2CCCN(S(C)(=O)=O)C2)CC1 (stereo not given) | inconclusive: 0.0928 µM [inhibitor, full curve, poor fit] | –
9 | S=C1N(c2ccccc2)C(c2ccccc2)N2CCCN12 (stereo not given) | inconclusive: 9.28 µM [inhibitor, partial curve, poor fit] | –
10 | Cc1ccc(NC(=O)CN(C)C(C)C(=O)N2CC(C)CC(C)C2)cc1 (stereo not given) | inconclusive: 18.5 µM [inhibitor, single point] | –
11 | Cc1ccc(C(=O)/C=C/Nc2cccc([N+](=O)[O-])c2)o1 | inconclusive: 16.5 µM [inhibitor, single point] | –
12 | CCc1ccc(OCCOCC(O)CN2CCN(Cc3ccc(Cl)cc3)CC2)cc1 (stereo not given) | inconclusive: 18.5 µM [inhibitor, single point] | –
13 | COc1cccc(CN(C)C(=O)c2cc(-c3cccs3)nc3ccccc23)c1 | inconclusive: 2.94 µM [inhibitor, single point] | –
14 | CC1C=CCC2C(=O)N(c3ccccc3OC(=O)c3cccs3)C(=O)C12 (stereo not given) | inconclusive: 11.7 µM [inhibitor, partial curve, poor fit] | –
15 | CCOC(=O)C1CCCN(CC(=O)Nc2nc(-c3ccccc3)cs2)C1 (stereo not given) | – | inactive: 0%
16 | CCCCCCn1c(=O)c(C(=O)Nc2ccncc2)c(O)c2ccccc21 | inconclusive: 18.5 µM [inhibitor, partial curve, poor fit] | –
17 | CCOc1cccc(C2C(C(=O)c3ccco3)=C(O)C(=O)N2c2nnc(C)s2)c1 (stereo not given) | inconclusive: 18.5 µM [inhibitor, single point] | –
18 | O=S(=O)(c1ccccc1)[C@@]1(c2ccc(Br)cc2)C[C@@H]2ON=C(c3ccccc3)[C@@H]2C1 | inconclusive: 14.7 µM [inhibitor, single point] | –
19 | Cc1c(C(=O)N(CCc2ccccc2)Cc2ccccc2)cccc1[N+](=O)[O-] | inconclusive: 10.4 µM [inhibitor, single point] | –
20 | Cc1ccccc1 | inconclusive: 13.5 µM [inhibitor, single point] | –
21 | NS(=O)(=O)c1ccc(NC(=O)/C=C/c2ccc(S(=O)(=O)NCc3ccco3)cc2)cc1 | inconclusive: 9.28 µM [inhibitor, single point] | –
22 | O=C(O)c1ccc(CSc2nnc(Cc3ccccc3)o2)cc1 | – | inactive: 2.41%
23 | N#Cc1ccc(CSc2nnc(-c3ccncc3)o2)cc1 | – | inactive: 114%
24 | CC(/C=N/NC(=O)c1ccncc1)=C\c1ccccc1 | – | inactive: 33.4%

Row | SMILES | Potency | activity change, negative = inhibition
25 | Cc1nc2cc(C(=O)O)ccc2n1-c1ccccc1 | inconclusive: 14.7 µM [inhibitor, single point] | –
26 | Cc1c(C(=O)Nc2cc(F)ccc2F)sc2nc3n(c(=O)c12)CCCCC3 | inconclusive: 8.28 µM [inhibitor, partial curve] | –
27 | COc1cccc(-c2[nH]nc3c2C(c2ccsc2)C(C#N)=C(N)O3)c1 (stereo not given) | inconclusive: 18.5 µM [inhibitor, single point] | –
28 | O=[N+]([O-])c1ccc(S(=O)(=O)N(CC(O)CN2CCCCC2)c2ccccc2)cc1 (stereo not given) | inconclusive: 2.33 µM [inhibitor, single point] | –
29 | CCC(=O)O[C@@H](OP(=O)(CCCCc1ccccc1)CC(=O)N1C[C@H](C2CCCCC2)C[C@H]1C(=O)O)C(C)C (stereo not given in full) | active: 5.36 µM | –
30 | CN(C)S(=O)(=O)c1ccc(C(=O)OCC2COC(C)(C)O2)cc1 (stereo not given) | – | inactive: 14.2%
31 | Nn1c(Cc2ccccc2)n[nH]c1=S | – | inactive: 25.3%
32 | O=C(CSc1ccccn1)Nc1ccc2ccccc2c1 | inconclusive: 18.5 µM [inhibitor, single point] | –
33 | CN(C(=O)Cn1cc(C(F)(F)F)cc(Cl)c1=O)C1CCS(=O)(=O)C1 (stereo not given) | – | inactive: 28.2%
34 | c1ccc2c(c1)CCCN2c1nc(N2CCOCC2)nc(N2CCOCC2)n1 | inconclusive: 10.4 µM [inhibitor, partial curve, poor fit] | –
35 | Brc1ccc(-[n+]2c(-c3ccccc3)cc(-c3ccccc3)cc2-c2ccccc2)cc1 | active: 0.828 µM | –
36 | CCOC(=O)C1CCN(Cc2cccc(OCc3ccccc3)c2)CC1 | inconclusive: 18.5 µM [inhibitor, single point] | –
37 | Cc1ccc(NC(=O)c2ccc(OCc3c(C)noc3C)cc2)c(C)c1 | inconclusive: 10.4 µM [inhibitor, partial curve] | –
38 | CCSc1nc(C)cc(C)c1S(=O)(=O)c1ccccc1C | inconclusive: 18.5 µM [inhibitor, single point] | –
39 | CCN1C(=O)[C@H]2[C@@H](c3ccc(C)cc3)N3C(=O)N(c4cccc(Cl)c4)C(=O)[C@@]3(Cc3ccc(Cl)cc3)[C@H]2C1=O | inconclusive: 5.22 µM [inhibitor, partial curve] | –
40 | C=CC(C)(O)CCC=C(C)C (stereo not given) | – | inactive: 28.5%
41 | COC(=O)c1sccc1NC(=O)c1cccc(OC)c1 | – | inactive: 48%
42 | CCc1cccc2c(C(=O)COC(=O)c3nccnc3N)c[nH]c12 | – | inactive: 3.38%
43 | Fc1cccc(CNc2ncnc3ccc(-c4ccoc4)cc23)c1 | inconclusive: 18.5 µM [inhibitor, single point] | –
44 | COC(=O)NNC(=S)NCc1ccc(C)cc1 | inconclusive: 11.7 µM [inhibitor, single point] | –
45 | CCOC(=O)C1CCCN(C(=S)Nc2ccc(F)cc2)C1 (stereo not given) | – | inactive: -21.8%
46 | CCCCC1=CC2=CC(=O)C(C)(OC(=O)CC)C(=O)C2=CN1Cc1ccc2c(c1)OCO2 (stereo not given) | inconclusive: 2.62 µM [inhibitor, partial curve, poor fit] | –
47 | CCCC(O)(CCN1CCOCC1)c1ccc(Cl)cc1 (stereo not given) | – | inactive: -13.9%
48 | CN(Cc1ccccc1)CC(O)COc1ccc(CNCCc2cccnc2)cc1 (stereo not given) | – | inactive: 1.44%

Part of the list above, as comma-separated lines:
Row,SMILES,Potency,"activity change, negative = inhibition"
32,O=C(CSc1ccccn1)Nc1ccc2ccccc2c1,"inconclusive: 18.5 µM [inhibitor, single point]",–
36,CCOC(=O)C1CCN(Cc2cccc(OCc3ccccc3)c2)CC1,"inconclusive: 18.5 µM [inhibitor, single point]",–
39,CCN1C(=O)[C@H]2[C@@H](c3ccc(C)cc3)N3C(=O)N(c4cccc(Cl)c4)C(=O)[C@@]3(Cc3ccc(Cl)cc3)[C@H]2C1=O,"inconclusive: 5.22 µM [inhibitor, partial curve]",–

Next part.

Row | SMILES | Potency | activity change, negative = inhibition
49 | Cc1ccc(C)c(NC(=O)C(CC(=O)O)C2CCCO2)c1 (stereo not given) | inconclusive: 18.5 µM [inhibitor, single point] | –
50 | O=C(Cn1c(=O)c(=O)n(Cc2ccccc2)c2ccc(Cl)cc21)Nc1cc(F)ccc1F | inconclusive: 0.0041 µM [inhibitor, full curve, poor fit] | –
51 | CC(=O)c1c(C)[nH]c(C(=O)CSc2ccc(F)cc2)c1C | – | inactive: 117%
52 | COc1ccc(CN(C(=O)c2ccc3c(c2)OCCO3)C(C(=O)NC2CCCCC2)c2ccc3ncccc3c2)cc1 (stereo not given) | active: 9.28 µM | –
53 | CCCCNC(=O)CCn1nc(-c2ccccc2)ccc1=O | inconclusive: 0.0738 µM [inhibitor, full curve, poor fit] | –
54 | NC(=O)C1CCCN(C(=O)c2ccc(Cl)c(S(=O)(=O)N3CCc4ccccc43)c2)C1 (stereo not given) | inconclusive: 5.86 µM [inhibitor, partial curve] | –
55 | CCC(=O)N1CCc2cc(Br)cc(S(=O)(=O)NCCN3CCCCC3CC)c21 (stereo not given) | inconclusive: 10.4 µM [inhibitor, single point] | –
56 | c1cnc(Oc2ccc3oc4ccccc4c3c2)nc1 | – | inactive: 108%
57 | CCCCOc1ccc(C(=O)NN2C(=O)NC3(CCCCC3)C2=O)cc1OC | – | inactive: 4.56%
58 | Cc1cccc(N(C(=O)CNC(=O)c2ccco2)C(C(=O)NC2CCCC2)c2ccncc2)c1 (stereo not given) | inconclusive: 13.1 µM [inhibitor, single point] | –
59 | CC1(C)CC(=O)C2=C(C1)OC1=C(C(=O)CC(C)(C)C1)C2c1ccccc1 | inconclusive: 10.4 µM [inhibitor, partial curve, poor fit] | –
60 | Cc1ccc(S(=O)(=O)c2nc(Nc3ccccc3N3CCOCC3)sc2Cl)cc1 | inconclusive: 11.7 µM [inhibitor, single point] | –
61 | O=C(CCn1c(=O)oc2ccccc21)N1CCc2ccccc21 | – | inactive: 1.26%
62 | COc1ccc(CCNC(=O)Cn2cnc3scc(-c4ccccc4)c3c2=O)cc1OC | inconclusive: 18.5 µM [inhibitor, single point] | –
63 | O=C(COc1ccc(-c2ccccc2)cc1)NNC(=O)NC1CCCCC1 | – | inactive: 20.1%
64 | COc1ccc2[nH]cc(CCNS(=O)(=O)Cc3ccccc3)c2c1 | – | inactive: 49.2%
65 | Cc1ccc(NC(=O)CSc2nnc(-c3ccco3)o2)c(C)c1 | – | inactive: 17.5%
66 | COc1cccc(C2c3[nH]c4ccccc4c3CCN2CCCn2cccn2)c1 (stereo not given) | inconclusive: 9.28 µM [inhibitor, partial curve, poor fit] | –
67 | CSc1nc(-c2ccccc2)c(C#N)c(=O)[nH]1 | – | inactive: 48.2%
68 | CC1CCN(S(=O)(=O)c2ccc3c(c2)c(=O)c(C(=O)N2CCCCC2)cn3C)CC1 | inconclusive: 18.5 µM [inhibitor, single point] | –
69 | COc1ccc(NC(=O)CSc2nnc3c4c(nc(-c5ccccc5)n23)CC(C)(C)OC4)cc1 | inconclusive: 18.5 µM [inhibitor, single point] | –
70 | O=C(NCC(=O)N1CC(O)CC1C(=O)N1CC(O)CC1C(=O)OCc1ccccc1)OCc1ccccc1 (stereo not given) | – | inactive: 11.3%

As entered above:
Potency, `Cc1cccc(N(C(=O)CNC(=O)c2ccco2)C(C(=O)NC2CCCC2)c2ccncc2)c1` (stereo not given) reads inconclusive: 13.1 µM [inhibitor, single point]
activity change, negative = inhibition, `O=C(NCC(=O)N1CC(O)CC1C(=O)N1CC(O)CC1C(=O)OCc1ccccc1)OCc1ccccc1` (stereo not given) reads inactive: 11.3%
